These results are taken from publication PMC7819943, “Rice protein-binding microarrays: a tool to detect cis-acting elements near promoter regions in rice”.

This is one part of the list.

The test has as its target T1, OsSMF1 (Oryza sativa, UniProt Q6ZLB0 1-436).
T1 sequence: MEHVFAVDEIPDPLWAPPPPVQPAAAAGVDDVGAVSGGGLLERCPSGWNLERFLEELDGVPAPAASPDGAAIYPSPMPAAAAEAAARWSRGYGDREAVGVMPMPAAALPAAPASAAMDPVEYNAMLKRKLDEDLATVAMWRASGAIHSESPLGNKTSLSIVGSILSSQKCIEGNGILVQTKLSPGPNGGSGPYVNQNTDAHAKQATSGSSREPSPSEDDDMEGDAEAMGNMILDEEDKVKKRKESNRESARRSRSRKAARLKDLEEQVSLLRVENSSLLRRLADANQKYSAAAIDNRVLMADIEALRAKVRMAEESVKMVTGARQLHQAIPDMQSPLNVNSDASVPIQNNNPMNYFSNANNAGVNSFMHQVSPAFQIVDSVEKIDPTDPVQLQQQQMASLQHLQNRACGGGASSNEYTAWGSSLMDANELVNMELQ
The test is described as follows: protein-binding microarray (RPBM); PBS, 2% BSA, 51.3 ng/ul salmon testes DNA, 50 uM zinc acetate, 200 nM TF, 25 C, 1 h; high values mean tight binding. Conditions: protein: recombinant; tags: N-terminal polyhistidine and DsRed monomer fusion (pET32a); chain copies: 2; label: CyDye5-dUTP incorporated in the synthesized complementary strand; 3' TTTTT single-stranded linker to array surface; dsDNA, one strand shown. The method in brief:
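Transcription factors, each fused N-terminally to a polyhistidine tag and DsRed, were expressed in E. coli BL21-CodonPlus and purified on Ni–NTA. A custom Agilent array was made double-stranded by primer extension with Cy5-dUTP and blocked with 2% BSA. It was incubated with 200 nM protein in PBS, 2% BSA, salmon testes DNA and 50 µM zinc acetate at 25 °C for 1 h, then washed. The binding signal is per-feature fluorescence intensity (arbitrary units) read on an Axon 4000B scanner.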
With “GATATGAAAGCAACATTCTTACATGTGGCGGTGAATCATCCGGAGTCACCTAGTGCAG”, the binding signal is 4080 fluorescence intensity (a.u.).
Turning to “CCAAAACACAAAGCAAACGTCCATCTCCGCAGCTTGCTCCCGGAGTCACCTAGTGCAG”, the binding signal was 18100 fluorescence intensity (a.u.).
Regarding “ATGTGCCGATGTATTTGACTTACTGTCCCTGGTAATGAAACGGAGTCACCTAGTGCAG”, the binding signal is 3140 fluorescence intensity (a.u.).
Take “TTGGCTTGTTGTTCATAGTTCCTACCAATTGCGTGTCCTCCGGAGTCACCTAGTGCAG”: the binding signal is 4480 fluorescence intensity (a.u.).
Regarding “ACGGGCTGCACGTTGCTACTACCAGCAGTAGCGCCTGCTACGGAGTCACCTAGTGCAG”, the binding signal was 33100 fluorescence intensity (a.u.).
The result for “TTATTAATATATTTAATTTAATGATCCGAGATAACATATCCGGAGTCACCTAGTGCAG” reads 35600 fluorescence intensity (a.u.); that for “CACGGCCTCGTCCTAGGCCCGCCACGTGTAGGCGACGTGTCGGAGTCACCTAGTGCAG”, 16200 fluorescence intensity (a.u.).
As for “CCCCGCCCGGTGCAAAATCAGCGCAGATTCGCCCGCCTGTCGGAGTCACCTAGTGCAG”, the figure is 3350 fluorescence intensity (a.u.); as for “AATCGATTCGAAATCCACACCGCTACTACGGCTAATTACGCGGAGTCACCTAGTGCAG”, 3870 fluorescence intensity (a.u.); as for “TCCAGCTAATGCCCAACCTCCAAAGCCGACGCGTTGGTTTCGGAGTCACCTAGTGCAG”, 3920 fluorescence intensity (a.u.).
As for “CAAACAATATTCTTTTGTGACTAGATCAAGCCGTAGTGTTCGGAGTCACCTAGTGCAG”, the figure is 3650 fluorescence intensity (a.u.); as for “TATCTGATGATGTGGGAGGTTCTAAAGGCAGTGCCGCTAGCGGAGTCACCTAGTGCAG”, 4220 fluorescence intensity (a.u.).
Consider “GCGGCTCGCCGTCATATGCGACGTGGCATGCACGACGCCGCGGAGTCACCTAGTGCAG”, for which the binding signal is 14300 fluorescence intensity (a.u.).
The result for “GGGCGAATTCGATTGAAGGAGGGAGGAATGTAATATCCCGCGGAGTCACCTAGTGCAG” reads 29700 fluorescence intensity (a.u.); that for “CCGCCTCACCACGCTGACCCATCGCCGGCGGTCTCCCTGCCGGAGTCACCTAGTGCAG”, 3720 fluorescence intensity (a.u.).
The result for “GAGAGAGACACGTACTATGCTAGACTAGACAACACCCAAACGGAGTCACCTAGTGCAG” reads 3640 fluorescence intensity (a.u.); that for “GTACAACTTAATTAGACCATAATATCTAAGGTTGCGTAATCGGAGTCACCTAGTGCAG”, 4440 fluorescence intensity (a.u.).
The result for “GGGCTAACTAACTGTGTGAATAGTCAACGTAGAGACTTATCGGAGTCACCTAGTGCAG” reads 4010 fluorescence intensity (a.u.); that for “GTTGCAGTGTGTGTTTTGTGTCACAAGCTAGGCTCGTGTACGGAGTCACCTAGTGCAG”, 3520 fluorescence intensity (a.u.); that for “CCGCCGCCGCCGCCGCCCGAATCCTTCCTGTGACGGCGAGCGGAGTCACCTAGTGCAG”, 3340 fluorescence intensity (a.u.).
On to “CCCCACCATGTCCACGCATTCACGCATGCATGCAGATATACGGAGTCACCTAGTGCAG”, for which the binding signal is 3220 fluorescence intensity (a.u.).
The result for “ATGTTTTGCTGAGTCTAAGCATGACGTACTTATCAAGATGCGGAGTCACCTAGTGCAG” reads 3220 fluorescence intensity (a.u.).
As for “AATTTCCAGTGCAACAGCGAGGAGTTAAAACACCAAGGGCCGGAGTCACCTAGTGCAG”, the figure is 3400 fluorescence intensity (a.u.).
